The list shows a part of the results, in another mix than the full data. At the low end of the ranking the order means little.
Tests used:
Test in all cases: DAPPL (digital affinity profiling via proximity ligation, sequencing)
Conditions in all cases: 10 mM Tris-HCl pH 7.5, 50 mM NaCl, 1 mM DTT, 4% glycerol, room temperature, 30 min; GST-TFs on glutathione beads, 16-mer random dsDNA library, 0.1% …; high values mean tight binding; double strand, one strand shown; scale: fold enrichment (6-mer frequency, TF over GST control)
FLI1 = target: T1, FLI1 (UniProt Q01543)
T1 sequence: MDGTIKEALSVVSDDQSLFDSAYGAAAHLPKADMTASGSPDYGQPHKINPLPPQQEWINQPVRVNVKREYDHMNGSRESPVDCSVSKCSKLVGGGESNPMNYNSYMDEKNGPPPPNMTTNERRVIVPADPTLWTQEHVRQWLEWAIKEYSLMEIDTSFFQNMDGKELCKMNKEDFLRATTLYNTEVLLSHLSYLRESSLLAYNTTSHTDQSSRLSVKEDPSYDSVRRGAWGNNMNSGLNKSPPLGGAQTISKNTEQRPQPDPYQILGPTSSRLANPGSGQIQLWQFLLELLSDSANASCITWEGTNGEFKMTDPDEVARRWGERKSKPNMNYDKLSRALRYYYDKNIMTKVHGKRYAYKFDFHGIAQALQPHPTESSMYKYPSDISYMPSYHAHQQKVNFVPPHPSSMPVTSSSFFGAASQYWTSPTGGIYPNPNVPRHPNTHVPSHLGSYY

By UniProt entry, the sequences of proteins in these tests, tags left out. Where a name states a change or a piece, a line headed by the entry shows the natural chain unless it says otherwise.
UniProt Q01892: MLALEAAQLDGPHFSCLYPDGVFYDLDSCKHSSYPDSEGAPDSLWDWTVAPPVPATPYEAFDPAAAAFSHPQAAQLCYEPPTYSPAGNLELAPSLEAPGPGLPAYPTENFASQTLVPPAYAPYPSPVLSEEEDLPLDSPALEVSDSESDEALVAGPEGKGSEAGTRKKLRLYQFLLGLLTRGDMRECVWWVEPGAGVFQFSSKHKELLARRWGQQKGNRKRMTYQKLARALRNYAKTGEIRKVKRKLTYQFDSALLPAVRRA
UniProt P41161: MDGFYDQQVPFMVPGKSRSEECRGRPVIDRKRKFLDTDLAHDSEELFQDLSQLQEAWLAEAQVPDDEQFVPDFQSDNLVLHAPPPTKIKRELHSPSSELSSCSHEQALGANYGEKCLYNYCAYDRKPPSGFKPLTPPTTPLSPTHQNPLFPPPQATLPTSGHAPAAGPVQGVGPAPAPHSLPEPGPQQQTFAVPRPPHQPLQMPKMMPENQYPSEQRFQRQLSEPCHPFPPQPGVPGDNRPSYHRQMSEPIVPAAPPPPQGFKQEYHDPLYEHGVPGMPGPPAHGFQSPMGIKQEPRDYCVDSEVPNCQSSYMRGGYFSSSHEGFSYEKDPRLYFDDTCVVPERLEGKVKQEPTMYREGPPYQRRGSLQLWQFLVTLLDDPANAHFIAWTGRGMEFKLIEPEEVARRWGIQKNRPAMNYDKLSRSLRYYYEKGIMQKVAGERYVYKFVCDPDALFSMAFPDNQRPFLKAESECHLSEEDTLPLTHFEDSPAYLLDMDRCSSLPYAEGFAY
UniProt Q99607: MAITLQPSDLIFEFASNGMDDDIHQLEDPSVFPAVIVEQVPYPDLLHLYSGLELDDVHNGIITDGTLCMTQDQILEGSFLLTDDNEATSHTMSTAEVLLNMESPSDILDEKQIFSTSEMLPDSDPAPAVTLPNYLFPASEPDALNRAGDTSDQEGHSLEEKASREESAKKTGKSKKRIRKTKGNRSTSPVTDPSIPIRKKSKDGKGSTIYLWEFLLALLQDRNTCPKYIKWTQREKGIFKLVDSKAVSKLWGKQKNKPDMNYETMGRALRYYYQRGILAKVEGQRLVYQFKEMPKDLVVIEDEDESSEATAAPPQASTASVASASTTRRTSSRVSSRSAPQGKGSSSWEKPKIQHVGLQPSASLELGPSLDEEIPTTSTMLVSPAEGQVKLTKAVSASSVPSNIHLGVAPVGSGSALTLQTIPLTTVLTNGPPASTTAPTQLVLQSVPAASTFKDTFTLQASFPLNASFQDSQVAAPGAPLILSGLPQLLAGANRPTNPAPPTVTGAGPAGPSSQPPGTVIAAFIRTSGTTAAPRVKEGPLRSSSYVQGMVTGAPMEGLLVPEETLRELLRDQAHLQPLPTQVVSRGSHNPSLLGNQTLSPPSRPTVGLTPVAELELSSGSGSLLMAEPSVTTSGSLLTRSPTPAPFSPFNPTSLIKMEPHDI

EHF = target: T2, EHF (UniProt Q9NZC4)
T2 sequence: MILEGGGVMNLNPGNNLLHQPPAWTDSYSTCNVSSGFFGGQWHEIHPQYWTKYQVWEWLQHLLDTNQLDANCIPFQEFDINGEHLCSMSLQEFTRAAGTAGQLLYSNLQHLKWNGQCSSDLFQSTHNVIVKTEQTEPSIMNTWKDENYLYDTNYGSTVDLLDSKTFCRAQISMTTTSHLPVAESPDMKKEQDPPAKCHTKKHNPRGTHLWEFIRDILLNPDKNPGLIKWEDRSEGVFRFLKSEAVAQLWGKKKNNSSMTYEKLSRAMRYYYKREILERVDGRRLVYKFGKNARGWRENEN

SPIB = SPIB (UniProt Q01892)
ETV5 = ETV5 (UniProt P41161)
ELF4 = ELF4 (UniProt Q99607)
ETV2 = target: T3, ETV2 (UniProt O00321)
T3 sequence: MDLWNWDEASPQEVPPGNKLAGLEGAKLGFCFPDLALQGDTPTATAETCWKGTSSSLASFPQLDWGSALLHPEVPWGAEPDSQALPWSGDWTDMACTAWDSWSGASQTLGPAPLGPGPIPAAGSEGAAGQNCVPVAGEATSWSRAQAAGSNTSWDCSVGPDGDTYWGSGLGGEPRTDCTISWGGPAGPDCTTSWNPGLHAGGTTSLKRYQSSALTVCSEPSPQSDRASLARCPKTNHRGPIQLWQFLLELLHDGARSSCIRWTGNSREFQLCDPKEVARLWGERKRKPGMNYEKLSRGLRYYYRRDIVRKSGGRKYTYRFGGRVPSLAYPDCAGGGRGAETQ

ETV3L = target: T4, ETV3L (UniProt Q6ZN32)
T4 sequence: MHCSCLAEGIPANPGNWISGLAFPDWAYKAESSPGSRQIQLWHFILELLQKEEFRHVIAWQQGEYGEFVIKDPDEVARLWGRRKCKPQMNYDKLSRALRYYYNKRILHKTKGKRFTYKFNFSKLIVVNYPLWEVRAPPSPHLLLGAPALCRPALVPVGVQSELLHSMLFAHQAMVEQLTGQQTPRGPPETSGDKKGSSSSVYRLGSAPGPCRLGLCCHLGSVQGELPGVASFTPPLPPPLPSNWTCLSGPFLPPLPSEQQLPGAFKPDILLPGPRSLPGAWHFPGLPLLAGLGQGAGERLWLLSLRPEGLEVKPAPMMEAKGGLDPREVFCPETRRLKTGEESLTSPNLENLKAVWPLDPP

| Sequence | binding signal (FLI1) | binding signal (EHF) | binding signal (SPIB) | binding signal (ETV5) | binding signal (ELF4) | binding signal (ETV2) | binding signal (ETV3L) |
| --- | --- | --- | --- | --- | --- | --- | --- |
| AGTCCG | 0.586 | 0.577 | 0.597 | 0.583 | 0.52 | 0.549 | 0.606 |
| GCGAGC | 0.881 | 0.904 | 0.841 | 0.858 | 0.91 | 0.763 | 0.815 |
| TAGGGA | 0.719 | 0.819 | 0.795 | 0.829 | 0.827 | 0.723 | 0.853 |
| AACCAG | 0.822 | 0.909 | 0.89 | 0.873 | 0.789 | 0.839 | 0.895 |
| CAAGGC | 0.926 | 0.828 | 0.892 | 0.841 | 0.793 | 0.884 | 0.817 |
| AGACTA | 0.78 | 0.763 | 0.771 | 0.764 | 0.769 | 0.865 | 0.768 |
| CGAGCG | 0.937 | 0.977 | 0.979 | 0.976 | 0.917 | 0.945 | 0.962 |
| GTCCAG | 0.664 | 0.651 | 0.659 | 0.631 | 0.63 | 0.649 | 0.676 |
| GGCACG | 0.845 | 0.828 | 0.915 | 0.92 | 0.874 | 0.832 | 0.869 |
| TGTAGT | 0.924 | 0.948 | 0.851 | 0.917 | 0.895 | 0.776 | 0.852 |
| AAGGAC | 0.888 | 0.838 | 0.843 | 0.816 | 0.806 | 0.843 | 0.827 |
| GGCCAG | 0.463 | 0.494 | 0.448 | 0.425 | 0.471 | 0.476 | 0.472 |
| GAGTAC | 0.518 | 0.569 | 0.511 | 0.567 | 0.559 | 0.591 | 0.556 |
| CGGCGT | 0.816 | 0.897 | 0.798 | 0.797 | 0.775 | 0.967 | 0.863 |
| CGGTCG | 0.385 | 0.46 | 0.42 | 0.372 | 0.402 | 0.362 | 0.385 |
| CAGCGT | 0.831 | 0.814 | 0.907 | 0.785 | 0.863 | 0.754 | 0.778 |
| GAGCCT | 0.889 | 0.822 | 0.765 | 0.818 | 0.841 | 0.842 | 0.775 |
| TGTGGG | 0.84 | 0.812 | 0.83 | 0.778 | 0.792 | 0.649 | 0.813 |
| TGGAGA | 0.43 | 0.41 | 0.386 | 0.428 | 0.413 | 0.388 | 0.423 |
| AGCCAT | 0.783 | 0.862 | 0.862 | 0.802 | 0.952 | 1.02 | 0.86 |

| Sequence | binding signal (FLI1) | binding signal (EHF) | binding signal (SPIB) | binding signal (ETV5) | binding signal (ELF4) | binding signal (ETV2) | binding signal (ETV3L) |
| --- | --- | --- | --- | --- | --- | --- | --- |
| AGCTGG | 0.952 | 0.897 | 0.921 | 0.819 | 0.872 | 0.757 | 0.952 |
| GAGCAA | 0.683 | 0.708 | 0.741 | 0.649 | 0.768 | 0.808 | 0.721 |
| GGGTTG | 0.877 | 0.886 | 0.78 | 0.862 | 0.836 | 0.765 | 0.884 |
| GACGAG | 0.506 | 0.498 | 0.58 | 0.532 | 0.502 | 0.727 | 0.512 |
| CAGACC | 0.83 | 0.786 | 0.802 | 0.798 | 0.849 | 0.911 | 0.75 |
| GACCAC | 0.925 | 0.989 | 0.791 | 0.847 | 0.996 | 0.918 | 0.915 |
| AGTTGG | 0.471 | 0.482 | 0.459 | 0.525 | 0.451 | 0.505 | 0.485 |
| GTAGTA | 0.912 | 0.927 | 0.934 | 0.937 | 0.98 | 0.713 | 0.908 |
| AAGAGC | 0.915 | 0.871 | 0.81 | 0.846 | 0.844 | 0.883 | 0.822 |
| GCCGTG | 0.258 | 0.239 | 0.207 | 0.243 | 0.239 | 0.251 | 0.272 |
| AGATCG | 0.483 | 0.434 | 0.439 | 0.501 | 0.507 | 0.504 | 0.492 |
| TCGGCA | 0.687 | 0.718 | 0.707 | 0.733 | 0.725 | 0.784 | 0.677 |
| CCGGAG | 0.489 | 0.564 | 0.484 | 0.541 | 0.496 | 0.429 | 0.543 |
| ACGGGA | 0.528 | 0.547 | 0.548 | 0.517 | 0.507 | 0.54 | 0.537 |
| TAGAGC | 0.76 | 0.861 | 0.701 | 0.707 | 0.793 | 0.79 | 0.704 |
| GGTGGA | 0.537 | 0.632 | 0.588 | 0.677 | 0.541 | 0.433 | 0.599 |
| GGTCGG | 0.263 | 0.291 | 0.27 | 0.279 | 0.281 | 0.296 | 0.277 |
| AGGGGT | 0.883 | 0.809 | 0.85 | 0.838 | 0.803 | 0.839 | 0.817 |
| GCAAGA | 0.845 | 0.842 | 0.782 | 0.867 | 0.848 | 0.766 | 0.867 |
| GCTTGA | 0.884 | 0.894 | 0.96 | 0.969 | 0.936 | 0.888 | 0.823 |

| Sequence | binding signal (FLI1) | binding signal (EHF) | binding signal (SPIB) | binding signal (ETV5) | binding signal (ELF4) | binding signal (ETV2) | binding signal (ETV3L) |
| --- | --- | --- | --- | --- | --- | --- | --- |
| CAGGAG | 0.258 | 0.255 | 0.276 | 0.281 | 0.257 | 0.302 | 0.265 |
| GAGCCC | 0.781 | 0.704 | 0.72 | 0.794 | 0.722 | 0.7 | 0.662 |
| AGCGTG | 0.417 | 0.355 | 0.392 | 0.376 | 0.363 | 0.366 | 0.376 |
| TGAGTC | 0.196 | 0.201 | 0.181 | 0.196 | 0.2 | 0.207 | 0.204 |
| CGCTGA | 0.909 | 0.889 | 1.01 | 0.876 | 0.858 | 0.765 | 0.841 |
| GACGTA | 0.783 | 0.699 | 0.642 | 0.731 | 0.761 | 0.841 | 0.684 |
| GAGGTC | 0.646 | 0.616 | 0.563 | 0.634 | 0.618 | 0.601 | 0.611 |
| GGGCCA | 0.704 | 0.742 | 0.67 | 0.688 | 0.678 | 0.735 | 0.717 |
| TCGGGA | 0.373 | 0.356 | 0.444 | 0.4 | 0.367 | 0.346 | 0.398 |
| AGACAA | 0.749 | 0.796 | 0.746 | 0.767 | 0.817 | 0.828 | 0.747 |
| CGCCGT | 0.948 | 0.917 | 0.833 | 0.84 | 0.943 | 0.821 | 0.876 |
| GGACTA | 0.836 | 0.822 | 0.911 | 0.817 | 0.869 | 0.862 | 0.918 |
| GGGTCG | 0.582 | 0.562 | 0.57 | 0.618 | 0.58 | 0.577 | 0.585 |
| AGTTCG | 0.717 | 0.691 | 0.744 | 0.748 | 0.767 | 0.711 | 0.707 |
| GCGAGG | 0.598 | 0.566 | 0.614 | 0.653 | 0.589 | 0.572 | 0.554 |
| CGCATT | 0.81 | 0.817 | 0.808 | 0.816 | 0.803 | 0.793 | 0.775 |
| GAGAGC | 0.408 | 0.381 | 0.323 | 0.388 | 0.385 | 0.352 | 0.369 |
| GACGGC | 0.81 | 0.744 | 0.753 | 0.764 | 0.733 | 0.682 | 0.748 |
| GCGCTG | 0.907 | 0.839 | 0.919 | 0.924 | 0.783 | 0.91 | 0.829 |
| AAACGT | 0.954 | 0.963 | 0.97 | 0.942 | 0.935 | 0.947 | 0.923 |

A run of entries from the list above:

| Sequence | binding signal (FLI1) | binding signal (EHF) | binding signal (SPIB) | binding signal (ETV5) | binding signal (ELF4) | binding signal (ETV2) | binding signal (ETV3L) |
| --- | --- | --- | --- | --- | --- | --- | --- |
| TGAGTC | 0.196 | 0.201 | 0.181 | 0.196 | 0.2 | 0.207 | 0.204 |
| CGCTGA | 0.909 | 0.889 | 1.01 | 0.876 | 0.858 | 0.765 | 0.841 |
| GACGTA | 0.783 | 0.699 | 0.642 | 0.731 | 0.761 | 0.841 | 0.684 |
| GAGGTC | 0.646 | 0.616 | 0.563 | 0.634 | 0.618 | 0.601 | 0.611 |

From publication PMC7862700
